# Test results reported in the supplement of paper PMC12542422.
# Structures can show the parent of a compound that is named as a salt. ± gives the standard deviation of the averaged measurements. This is one part of the list. Values are raw readings; no control value is given beside them.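 Across three biological replicates, HeLa cells were imaged for ribosome assembly using ENP1 staining (export block present or absent) or inducible tagged ribosomal protein reporters. Machine learning classified each cell's signal localization relative to DMSO controls. Hits exceeded the DMSO false-positive mean by five standard deviations and were then visually confirmed.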
# Assays:
# [1] = test system: HeLa K (ENP1 immunofluorescence, +LMB); assay: fraction of cells with nucleolar or nucleolar/nucleoplasmic ENP1 signal (MainHitrate); higher = more cells with nucleolar/nuclear readout signal (for ENP1 -LMB: less RNAPI inhibition; for +LMB ENP1 and RP reporters: stronger nuclear/nucleolar retention, i.e. ribosome biogenesis defect); settings: concentration: 1 µM; treatment time: 6 h; ENP1 +LMB; leptomycin B: 20 nM, last 1.5 h
# [2] = test system: HeLa K (ENP1 immunofluorescence, no LMB); assay: as above; settings: concentration: 1 µM; treatment time: 6 h; ENP1 -LMB; leptomycin B: none
# HeLa RPS2-YFP reporter = assay: fraction of reporter-positive cells with nuclear (nucleolar or nucleolar/nucleoplasmic) RPS2-YFP (MainHitrate); higher = more cells with nucleolar/nuclear readout signal (for ENP1 -LMB: less RNAPI inhibition; for +LMB ENP1 and RP reporters: stronger nuclear/nucleolar retention, i.e. ribosome biogenesis defect); settings: concentration: 1 µM; treatment time: 6 h
# HeLa RPL29-GFP reporter = assay: fraction of reporter-positive cells with nuclear (nucleolar or nucleolar/nucleoplasmic) RPL29-GFP (MainHitrate); higher = more cells with nucleolar/nuclear readout signal (for ENP1 -LMB: less RNAPI inhibition; for +LMB ENP1 and RP reporters: stronger nuclear/nucleolar retention, i.e. ribosome biogenesis defect); settings: concentration: 1 µM; treatment time: 6 h
Structure (SMILES),fraction [1],fraction [2],fraction of reporter-positive cells with nuclear (HeLa RPS2-YFP reporter),fraction of reporter-positive cells with nuclear (HeLa RPL29-GFP reporter)
Cc1cccc(Nc2ccncc2S(=O)(=O)NC(=O)NC(C)C)c1 [Torsemide (Demadex)],0.0608 ± 0.05,0.998 ± 0.0034,0.0675 ± 0.031,0.199 ± 0.032
Nc1nc(N)c2nc(-c3ccccc3)c(N)nc2n1 [triamterene],0.101 ± 0.13,0.986 ± 0.025,0.111 ± 0.098,0.227 ± 0.075
O=P(O)(O)C(O)(Cn1ccnc1)P(=O)(O)O [Zoledronic Acid (Zoledronate)],0.0707 ± 0.046,0.9972 ± 0.0048,0.0993 ± 0.072,0.213 ± 0.058
Cn1c(=O)c2c(ncn2CC2OCCO2)n(C)c1=O [Doxofylline],0.101 ± 0.14,0.968 ± 0.055,0.126 ± 0.083,0.222 ± 0.063
Cc1c(C(=O)NN2CCCCC2)nn(-c2ccc(Cl)cc2Cl)c1-c1ccc(Cl)cc1,0.0854 ± 0.12,0.974 ± 0.045,0.142 ± 0.11,0.192 ± 0.025
Cc1c(O)c(=O)ccn1C [Deferiprone],0.0382 ± 0.047,0.974 ± 0.045,0.13 ± 0.077,0.205 ± 0.045
CCN(CC)C(=O)C1(c2ccccc2)CC1CN (stereo not given) [Milnacipran HCl],0.0501 ± 0.054,0.985 ± 0.026,0.104 ± 0.099,0.247 ± 0.084
O=C([O-])C(O)[C@H](O)[C@@H](O)[C@H](O)[C@H](O)CO.O=C([O-])C(O)[C@H](O)[C@@H](O)[C@H](O)[C@H](O)CO.[Ca+2] (stereo not given in full) [Calcium Gluceptate],0.0627 ± 0.066,0.9963 ± 0.0063,0.154 ± 0.16,0.289 ± 0.21
COc1ccc2c(c1OC)C(=O)O[C@@H]2[C@H]1c2c(cc3c(c2OC)OCO3)CCN1C [Noscapine HCl],0.154 ± 0.23,0.9966 ± 0.0059,0.162 ± 0.16,0.274 ± 0.22
OC[C@@H](O)[C@@H](O)[C@H](O)[C@H](O)CO [D-Mannitol (Osmitrol)],0.138 ± 0.2,0.991 ± 0.016,0.128 ± 0.093,0.275 ± 0.095
C#CCN[C@@H]1CCc2ccccc21 [Rasagiline mesylate],0.108 ± 0.15,0.992 ± 0.013,0.106 ± 0.083,0.239 ± 0.072
COc1c(C)c2c(c(O)c1C/C=C(\C)CCC(=O)O)C(=O)OC2 [Mycophenolic (Mycophenolate)],0.0384 ± 0.056,0.678 ± 0.56,0.0852 ± 0.072,0.387 ± 0.19
CCCCCCOC(=O)NC(=N)c1ccc(NCc2nc3cc(C(=O)N(CCC(=O)OCC)c4ccccn4)ccc3n2C)cc1 [BIBR-1048 (Dabigatran)],0.106 ± 0.15,0.993 ± 0.012,0.126 ± 0.059,0.222 ± 0.089
CC[C@H]1OC(=O)[C@H](C)[C@@H](O[C@H]2C[C@@](C)(OC)[C@@H](O)[C@H](C)O2)[C@H](C)[C@@H](O[C@@H]2O[C@H](C)C[C@H](N(C)C)[C@H]2O)[C@](C)(O)C[C@@H](C)[C@@H]2N[C@@H](COCCOC)O[C@H]([C@H]2C)[C@]1(C)O [Dirithromycin],0.0717 ± 0.09,0.993 ± 0.013,0.123 ± 0.1,0.21 ± 0.075
Oc1ccc(/C=C/c2cc(O)cc(O)c2)cc1 [Resveratrol],0.103 ± 0.071,0.9983 ± 0.0029,0.105 ± 0.077,0.21 ± 0.065
O=c1oc2c(O)c(O)cc3c(=O)oc4c(O)c(O)cc1c4c23 [Ellagic acid],0.107 ± 0.064,0.9978 ± 0.0038,0.115 ± 0.075,0.207 ± 0.071
Clc1ccccc1C(c1ccccc1)(c1ccccc1)n1ccnc1 [Clotrimazole (Canesten)],0.409 ± 0.51,0.9985 ± 0.0025,0.108 ± 0.052,0.215 ± 0.063
CCOC(=O)C1=C(COCCN)NC(C)=C(C(=O)OC)C1c1ccccc1Cl (stereo not given) [Amlodipine (Norvasc)],0.136 ± 0.2,0.977 ± 0.04,0.138 ± 0.081,0.226 ± 0.067
CNC[C@H](O)[C@@H](O)[C@H](O)[C@H](O)CO [Meglumine],0.0659 ± 0.079,0.992 ± 0.014,0.0942 ± 0.081,0.227 ± 0.079
c1ccc2c(CC3=NCCN3)cccc2c1 [Naphazoline hydrochloride (Naphcon)],0.118 ± 0.17,0.989 ± 0.019,0.109 ± 0.07,0.234 ± 0.08
Cc1cc2c(s1)Nc1ccccc1N=C2N1CCN(C)CC1 [Olanzapine (Zyprexa)],0.136 ± 0.19,0.992 ± 0.013,0.112 ± 0.091,0.216 ± 0.071
C[C@H]1O[C@H](O[C@H]2[C@H](O)[C@@H](O)[C@@H](O[C@H]3[C@H](O)[C@@H](O)C(O)O[C@@H]3CO)O[C@@H]2CO)[C@H](O)[C@@H](O)[C@@H]1N[C@H]1C=C(CO)[C@@H](O)[C@H](O)[C@H]1O (stereo not given in full) [Acarbose],0.0959 ± 0.13,0.9989 ± 0.002,0.109 ± 0.065,0.195 ± 0.054
C=C1[C@H](CO)[C@@H](O)C[C@@H]1n1cnc2c(=O)[nH]c(N)nc21 [Entecavir hydrate],0.0821 ± 0.11,0.998 ± 0.0036,0.105 ± 0.068,0.203 ± 0.067
Cc1noc(NS(=O)(=O)c2ccc(N)cc2)c1C [Sulfisoxazole],0.109 ± 0.14,0.992 ± 0.013,0.147 ± 0.084,0.217 ± 0.1
N=C(N)NS(=O)(=O)c1ccc(N)cc1 [Sulfaguanidine],0.0915 ± 0.12,0.986 ± 0.024,0.111 ± 0.078,0.213 ± 0.068

# 2 entries picked at random from those above, as already listed:
Structure (SMILES),fraction [1],fraction [2],fraction of reporter-positive cells with nuclear (HeLa RPS2-YFP reporter),fraction of reporter-positive cells with nuclear (HeLa RPL29-GFP reporter)
Oc1ccc(/C=C/c2cc(O)cc(O)c2)cc1 [Resveratrol],0.103 ± 0.071,0.9983 ± 0.0029,0.105 ± 0.077,0.21 ± 0.065
CCCCCCOC(=O)NC(=N)c1ccc(NCc2nc3cc(C(=O)N(CCC(=O)OCC)c4ccccn4)ccc3n2C)cc1 [BIBR-1048 (Dabigatran)],0.106 ± 0.15,0.993 ± 0.012,0.126 ± 0.059,0.222 ± 0.089
